The values that follow come from patent publication US5424394A (priority 1993, dated 1995).

This data set in a line: general procedure: Boc solid-phase peptide synthesis; 4-methylbenzhydrylamine resin (0.72 meq/g or 0.44 meq/g); HOBT-NMP protocol (NMP/DMSO/DIEA solvent system). To be noted: whole synthesis, capillary electrophoresis, scale of the general procedure 0.5 mmol; for final HPLC purity: analytical RP-HPLC.

As for ^29 Pro-Human Amylin, the “final HPLC purity” value is 93% and the “final purity (method not given)” value came to 91.4%.

As to “Human Amylin (KCNTATCATQRLANFLVHSSNNFGAILSSTNVGSNTY; Islet amyloid polypeptide C-terminal amide; UniProt P10997 34-70, looked up)”, the “final purity (method not given)” value turned out to be 92.3%. For the same substance, the “final HPLC purity” value (run 1) is over 95%.

^23 Leu-Human Amylin: the “final purity (method not given)” value came out at 96.1%.
